Further values from the same series stand in other lists.
Experiments:
Assay type in all cases: functional, cell-based
Parameters in all cases: recommended concentration 100 nM
[1] = target: Centromere-associated protein E (Homo sapiens) (UniProt Q02224); test: Affinity Phenotypic Cellular interaction: (Cell-growth inhibition assays (growth inhibitory effect colon cancer cell line HCC70)) EUB0000734a CENPE; conditions: Affinity Phenotypic Cellular Source Knowledge https://pubmed.ncbi.nlm.nih.gov/20167803/
[2] = target: Centromere-associated protein E (Homo sapiens) (UniProt Q02224); test: Affinity Phenotypic Cellular interaction: (Cell-growth inhibition assays (growth inhibitory effect colon cancer cell line A172)) EUB0000734a CENPE; conditions: A 172, Affinity Phenotypic Cellular Source Knowledge https://pubmed.ncbi.nlm.nih.gov/20167803/
[3] = target: Centromere-associated protein E (Homo sapiens) (UniProt Q02224); test: Affinity Phenotypic Cellular interaction: (Cell-growth inhibition assays (growth inhibitory effect colon cancer cell line HCC2998)) EUB0000734a CENPE; conditions: HCC 2998, Affinity Phenotypic Cellular Source Knowledge https://pubmed.ncbi.nlm.nih.gov/20167803/
[4] = target: Centromere-associated protein E (Homo sapiens) (UniProt Q02224); test: Affinity Phenotypic Cellular interaction: (Cell-growth inhibition assays (growth inhibitory effect colon cancer cell line CaOv-3)) EUB0000734a CENPE; conditions: Affinity Phenotypic Cellular Source Knowledge https://pubmed.ncbi.nlm.nih.gov/20167803/
[5] = target: Centromere-associated protein E (Homo sapiens) (UniProt Q02224); test: Affinity Phenotypic Cellular interaction: (Cell-growth inhibition assays (growth inhibitory effect colon cancer cell line UM-UC-3)) EUB0000734a CENPE; conditions: UMUC3, Affinity Phenotypic Cellular Source Knowledge https://pubmed.ncbi.nlm.nih.gov/20167803/
[6] = target: Centromere-associated protein E (Homo sapiens) (UniProt Q02224); test: Affinity Phenotypic Cellular interaction: (Cell-growth inhibition assays (growth inhibitory effect colon cancer cell line A375)) EUB0000734a CENPE; conditions: A-375, Affinity Phenotypic Cellular Source Knowledge https://pubmed.ncbi.nlm.nih.gov/20167803/
[7] = target: Centromere-associated protein E (Homo sapiens) (UniProt Q02224); test: Affinity Phenotypic Cellular interaction: (Cell-growth inhibition assays (growth inhibitory effect colon cancer cell line NCI-H747)) EUB0000734a CENPE; conditions: Affinity Phenotypic Cellular Source Knowledge https://pubmed.ncbi.nlm.nih.gov/20167803/
[8] = target: Centromere-associated protein E (Homo sapiens) (UniProt Q02224); test: Affinity Phenotypic Cellular interaction: (Cell-growth inhibition assays (growth inhibitory effect colon cancer cell line KM12)) EUB0000734a CENPE; conditions: Affinity Phenotypic Cellular Source Knowledge https://pubmed.ncbi.nlm.nih.gov/20167803/
[9] = target: Centromere-associated protein E (Homo sapiens) (UniProt Q02224); test: Affinity Phenotypic Cellular interaction: (Cell-growth inhibition assays (growth inhibitory effect colon cancer cell line MDA-MB-231)) EUB0000734a CENPE; conditions: Affinity Phenotypic Cellular Source Knowledge https://pubmed.ncbi.nlm.nih.gov/20167803/
[10] = target: Centromere-associated protein E (Homo sapiens) (UniProt Q02224); test: Affinity Phenotypic Cellular interaction: (Cell-growth inhibition assays (growth inhibitory effect colon cancer cell line AGS)) EUB0000734a CENPE; conditions: Affinity Phenotypic Cellular Source Knowledge https://pubmed.ncbi.nlm.nih.gov/20167803/
[11] = target: Centromere-associated protein E (Homo sapiens) (UniProt Q02224); test: Affinity Phenotypic Cellular interaction: (Cell-growth inhibition assays (growth inhibitory effect colon cancer cell line JEG-3)) EUB0000734a CENPE; conditions: Affinity Phenotypic Cellular Source Knowledge https://pubmed.ncbi.nlm.nih.gov/20167803/
[12] = target: Centromere-associated protein E (Homo sapiens) (UniProt Q02224); test: Affinity Phenotypic Cellular interaction: (Cell-growth inhibition assays (growth inhibitory effect colon cancer cell line LS1034)) EUB0000734a CENPE; conditions: LS-1034, Affinity Phenotypic Cellular Source Knowledge https://pubmed.ncbi.nlm.nih.gov/20167803/
[13] = target: Centromere-associated protein E (Homo sapiens) (UniProt Q02224); test: Affinity Phenotypic Cellular interaction: (Cell-growth inhibition assays (growth inhibitory effect colon cancer cell line NCI-H295R)) EUB0000734a CENPE; conditions: Affinity Phenotypic Cellular Source Knowledge https://pubmed.ncbi.nlm.nih.gov/20167803/
[14] = target: Centromere-associated protein E (Homo sapiens) (UniProt Q02224); test: Affinity Phenotypic Cellular interaction: (Cell-growth inhibition assays (growth inhibitory effect colon cancer cell line A7)) EUB0000734a CENPE; conditions: M2A7, Affinity Phenotypic Cellular Source Knowledge https://pubmed.ncbi.nlm.nih.gov/20167803/
[15] = target: Centromere-associated protein E (Homo sapiens) (UniProt Q02224); test: Affinity Phenotypic Cellular interaction: (Cell-growth inhibition assays (growth inhibitory effect colon cancer cell line SW620)) EUB0000734a CENPE; conditions: SW-620, Affinity Phenotypic Cellular Source Knowledge https://pubmed.ncbi.nlm.nih.gov/20167803/
[16] = target: Centromere-associated protein E (Homo sapiens) (UniProt Q02224); test: Affinity Phenotypic Cellular interaction: (Cell-growth inhibition assays (growth inhibitory effect colon cancer cell line SCC-12)) EUB0000734a CENPE; conditions: Affinity Phenotypic Cellular Source Knowledge https://pubmed.ncbi.nlm.nih.gov/20167803/
[17] = target: Centromere-associated protein E (Homo sapiens) (UniProt Q02224); test: Affinity Phenotypic Cellular interaction: (Cell-growth inhibition assays (growth inhibitory effect colon cancer cell line KHOS-240S)) EUB0000734a CENPE; conditions: Affinity Phenotypic Cellular Source Knowledge https://pubmed.ncbi.nlm.nih.gov/20167803/
[18] = target: Centromere-associated protein E (Homo sapiens) (UniProt Q02224); test: Affinity Phenotypic Cellular interaction: (Cell-growth inhibition assays (growth inhibitory effect myeloma cancer cell line SKO-007)) EUB0000734a CENPE; conditions: SK-007, Affinity Phenotypic Cellular Source Knowledge https://pubmed.ncbi.nlm.nih.gov/20167803/
[19] = target: Centromere-associated protein E (Homo sapiens) (UniProt Q02224); test: Affinity Phenotypic Cellular interaction: (Cell-growth inhibition assays (growth inhibitory effect colon cancer cell line NCI-H596)) EUB0000734a CENPE; conditions: Affinity Phenotypic Cellular Source Knowledge https://pubmed.ncbi.nlm.nih.gov/20167803/
[20] = target: Centromere-associated protein E (Homo sapiens) (UniProt Q02224); test: Affinity Phenotypic Cellular interaction: (Cell-growth inhibition assays (growth inhibitory effect colon cancer cell line LOX IMVI)) EUB0000734a CENPE; conditions: Affinity Phenotypic Cellular Source Knowledge https://pubmed.ncbi.nlm.nih.gov/20167803/
[21] = target: Centromere-associated protein E (Homo sapiens) (UniProt Q02224); test: Affinity Phenotypic Cellular interaction: (Cell-growth inhibition assays (growth inhibitory effect colon cancer cell line HT-1080)) EUB0000734a CENPE; conditions: Affinity Phenotypic Cellular Source Knowledge https://pubmed.ncbi.nlm.nih.gov/20167803/
[22] = target: Centromere-associated protein E (Homo sapiens) (UniProt Q02224); test: Affinity Phenotypic Cellular interaction: (Cell-growth inhibition assays (growth inhibitory effect colon cancer cell line ACHN)) EUB0000734a CENPE; conditions: Affinity Phenotypic Cellular Source Knowledge https://pubmed.ncbi.nlm.nih.gov/20167803/
[23] = target: Centromere-associated protein E (Homo sapiens) (UniProt Q02224); test: Affinity Phenotypic Cellular interaction: (Cell-growth inhibition assays (growth inhibitory effect colon cancer cell line SCaBER)) EUB0000734a CENPE; conditions: Affinity Phenotypic Cellular Source Knowledge https://pubmed.ncbi.nlm.nih.gov/20167803/
[24] = target: Centromere-associated protein E (Homo sapiens) (UniProt Q02224); test: Affinity Phenotypic Cellular interaction: (Cell-growth inhibition assays (growth inhibitory effect colon cancer cell line NCI-H661)) EUB0000734a CENPE; conditions: Affinity Phenotypic Cellular Source Knowledge https://pubmed.ncbi.nlm.nih.gov/20167803/
[25] = target: Centromere-associated protein E (Homo sapiens) (UniProt Q02224); test: Affinity Phenotypic Cellular interaction: (Cell-growth inhibition assays (growth inhibitory effect colon cancer cell line MCF 10A)) EUB0000734a CENPE; conditions: Affinity Phenotypic Cellular Source Knowledge https://pubmed.ncbi.nlm.nih.gov/20167803/
[26] = target: Centromere-associated protein E (Homo sapiens) (UniProt Q02224); test: Affinity Phenotypic Cellular interaction: (Cell-growth inhibition assays (growth inhibitory effect colon cancer cell line NCI-H146)) EUB0000734a CENPE; conditions: Affinity Phenotypic Cellular Source Knowledge https://pubmed.ncbi.nlm.nih.gov/20167803/
[27] = target: Centromere-associated protein E (Homo sapiens) (UniProt Q02224); test: Affinity Phenotypic Cellular interaction: (Cell-growth inhibition assays (growth inhibitory effect colon cancer cell line SW948)) EUB0000734a CENPE; conditions: Affinity Phenotypic Cellular Source Knowledge https://pubmed.ncbi.nlm.nih.gov/20167803/
[28] = target: Centromere-associated protein E (Homo sapiens) (UniProt Q02224); test: Affinity Phenotypic Cellular interaction: (Cell-growth inhibition assays (growth inhibitory effect colon cancer cell line NCI-H2052)) EUB0000734a CENPE; conditions: Affinity Phenotypic Cellular Source Knowledge https://pubmed.ncbi.nlm.nih.gov/20167803/
[29] = target: Centromere-associated protein E (Homo sapiens) (UniProt Q02224); test: Affinity Phenotypic Cellular interaction: (Cell-growth inhibition assays (growth inhibitory effect squamous cancer cell line SCC-13)) EUB0000734a CENPE; conditions: Affinity Phenotypic Cellular Source Knowledge https://pubmed.ncbi.nlm.nih.gov/20167803/
[30] = target: Centromere-associated protein E (Homo sapiens) (UniProt Q02224); test: Affinity Phenotypic Cellular interaction: (Cell-growth inhibition assays (growth inhibitory effect colon cancer cell line MCF7)) EUB0000734a CENPE; conditions: Affinity Phenotypic Cellular Source Knowledge https://pubmed.ncbi.nlm.nih.gov/20167803/
[31] = target: Centromere-associated protein E (Homo sapiens) (UniProt Q02224); test: Affinity Phenotypic Cellular interaction: (Cell-growth inhibition assays (growth inhibitory effect colon cancer cell line Capan-2)) EUB0000734a CENPE; conditions: Affinity Phenotypic Cellular Source Knowledge https://pubmed.ncbi.nlm.nih.gov/20167803/
[32] = target: Centromere-associated protein E (Homo sapiens) (UniProt Q02224); test: Affinity Phenotypic Cellular interaction: (Cell-growth inhibition assays (growth inhibitory effect colon cancer cell line RKO)) EUB0000734a CENPE; conditions: Affinity Phenotypic Cellular Source Knowledge https://pubmed.ncbi.nlm.nih.gov/20167803/
[33] = target: Centromere-associated protein E (Homo sapiens) (UniProt Q02224); test: Affinity Phenotypic Cellular interaction: (Cell-growth inhibition assays (growth inhibitory effect colon cancer cell line SK-MEL-28)) EUB0000734a CENPE; conditions: SK-MEL-2, Affinity Phenotypic Cellular Source Knowledge https://pubmed.ncbi.nlm.nih.gov/20167803/
[34] = target: Centromere-associated protein E (Homo sapiens) (UniProt Q02224); test: Affinity Phenotypic Cellular interaction: (Cell-growth inhibition assays (growth inhibitory effect colon cancer cell line BPH1)) EUB0000734a CENPE; conditions: BPH-1, Affinity Phenotypic Cellular Source Knowledge https://pubmed.ncbi.nlm.nih.gov/20167803/
[35] = target: Centromere-associated protein E (Homo sapiens) (UniProt Q02224); test: Affinity Phenotypic Cellular interaction: (Cell-growth inhibition assays (growth inhibitory effect colon cancer cell line C-4II)) EUB0000734a CENPE; conditions: Affinity Phenotypic Cellular Source Knowledge https://pubmed.ncbi.nlm.nih.gov/20167803/

Protein sequences, listed by entry. Tags and fused reporters are not part of them. Lines headed by an entry give the natural chain unless they say otherwise; changes in a name come on top.
UniProt Q02224: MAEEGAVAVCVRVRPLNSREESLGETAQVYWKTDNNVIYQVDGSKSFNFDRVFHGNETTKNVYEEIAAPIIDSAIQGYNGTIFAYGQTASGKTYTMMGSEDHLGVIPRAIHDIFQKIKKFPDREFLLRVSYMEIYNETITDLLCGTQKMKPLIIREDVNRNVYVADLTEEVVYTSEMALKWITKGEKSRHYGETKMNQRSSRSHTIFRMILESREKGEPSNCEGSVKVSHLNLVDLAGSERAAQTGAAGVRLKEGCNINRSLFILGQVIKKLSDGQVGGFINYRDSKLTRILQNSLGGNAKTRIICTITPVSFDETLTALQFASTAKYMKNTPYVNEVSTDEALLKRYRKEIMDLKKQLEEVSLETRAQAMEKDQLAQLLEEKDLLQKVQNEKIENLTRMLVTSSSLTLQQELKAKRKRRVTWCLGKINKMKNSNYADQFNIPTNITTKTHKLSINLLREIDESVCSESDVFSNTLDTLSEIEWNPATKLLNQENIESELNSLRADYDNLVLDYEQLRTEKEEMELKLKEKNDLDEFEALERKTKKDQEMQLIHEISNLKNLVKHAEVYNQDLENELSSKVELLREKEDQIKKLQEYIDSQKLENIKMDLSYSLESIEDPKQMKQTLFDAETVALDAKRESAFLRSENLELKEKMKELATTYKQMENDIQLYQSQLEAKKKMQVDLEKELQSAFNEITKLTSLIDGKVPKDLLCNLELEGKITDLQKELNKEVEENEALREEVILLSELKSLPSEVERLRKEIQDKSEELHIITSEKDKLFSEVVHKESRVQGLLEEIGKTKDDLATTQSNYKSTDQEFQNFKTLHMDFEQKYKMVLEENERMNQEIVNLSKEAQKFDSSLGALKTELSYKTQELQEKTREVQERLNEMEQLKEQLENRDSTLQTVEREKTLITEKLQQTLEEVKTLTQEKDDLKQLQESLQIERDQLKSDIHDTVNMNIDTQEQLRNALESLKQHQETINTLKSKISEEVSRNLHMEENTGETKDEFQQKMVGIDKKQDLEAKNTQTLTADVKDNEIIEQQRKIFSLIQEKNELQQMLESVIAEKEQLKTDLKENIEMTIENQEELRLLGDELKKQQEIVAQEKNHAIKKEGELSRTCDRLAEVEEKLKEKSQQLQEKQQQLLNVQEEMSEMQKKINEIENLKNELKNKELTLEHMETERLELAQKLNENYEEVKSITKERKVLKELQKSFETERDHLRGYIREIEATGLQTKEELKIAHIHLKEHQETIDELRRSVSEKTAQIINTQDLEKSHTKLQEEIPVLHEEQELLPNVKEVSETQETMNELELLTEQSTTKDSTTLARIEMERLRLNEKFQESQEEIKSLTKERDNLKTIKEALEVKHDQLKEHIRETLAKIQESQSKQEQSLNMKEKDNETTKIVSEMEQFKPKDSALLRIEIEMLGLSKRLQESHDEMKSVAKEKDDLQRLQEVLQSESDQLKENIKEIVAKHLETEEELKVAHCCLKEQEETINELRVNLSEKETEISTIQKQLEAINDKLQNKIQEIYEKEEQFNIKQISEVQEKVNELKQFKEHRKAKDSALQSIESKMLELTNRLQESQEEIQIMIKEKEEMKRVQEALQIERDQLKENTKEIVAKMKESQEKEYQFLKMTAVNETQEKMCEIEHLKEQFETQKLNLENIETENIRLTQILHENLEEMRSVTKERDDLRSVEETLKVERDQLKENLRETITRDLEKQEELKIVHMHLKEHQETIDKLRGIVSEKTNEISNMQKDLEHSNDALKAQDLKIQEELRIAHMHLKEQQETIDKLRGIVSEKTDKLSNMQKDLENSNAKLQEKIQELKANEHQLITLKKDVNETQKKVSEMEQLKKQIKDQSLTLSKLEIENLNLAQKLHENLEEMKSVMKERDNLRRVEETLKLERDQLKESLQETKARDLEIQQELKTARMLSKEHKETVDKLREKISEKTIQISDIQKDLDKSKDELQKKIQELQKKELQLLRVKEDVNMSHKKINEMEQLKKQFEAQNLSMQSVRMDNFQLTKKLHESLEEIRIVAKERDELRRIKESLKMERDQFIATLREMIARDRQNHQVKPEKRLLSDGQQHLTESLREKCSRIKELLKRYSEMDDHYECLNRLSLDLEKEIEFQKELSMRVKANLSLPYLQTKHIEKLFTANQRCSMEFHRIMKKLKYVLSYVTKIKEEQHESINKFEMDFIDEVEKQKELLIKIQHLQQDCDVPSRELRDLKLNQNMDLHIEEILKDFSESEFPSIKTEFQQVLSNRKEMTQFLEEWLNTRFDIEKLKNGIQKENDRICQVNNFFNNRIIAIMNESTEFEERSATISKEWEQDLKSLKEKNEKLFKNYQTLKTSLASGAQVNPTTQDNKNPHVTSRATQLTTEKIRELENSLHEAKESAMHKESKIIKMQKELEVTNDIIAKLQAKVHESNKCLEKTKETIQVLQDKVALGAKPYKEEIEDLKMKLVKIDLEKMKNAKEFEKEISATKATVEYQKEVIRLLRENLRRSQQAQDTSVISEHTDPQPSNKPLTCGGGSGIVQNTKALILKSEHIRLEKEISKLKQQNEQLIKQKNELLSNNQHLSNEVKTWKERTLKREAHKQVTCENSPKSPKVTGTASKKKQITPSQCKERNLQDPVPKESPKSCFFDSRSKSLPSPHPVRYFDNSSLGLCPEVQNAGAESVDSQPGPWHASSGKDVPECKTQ

CC(C)Oc1ccc(C(=O)N[C@H](CNC(=O)CN(C)C)Cc2ccc(-c3cn4cccc([C@H](C)O)c4n3)cc2)cc1Cl was tested, and the GIC50 [1] was 24 nM, the GIC50 [2] was 27 nM and the GIC50 [3] was 29 nM. For the same molecule, the GIC50 [4] was 33 nM, the GIC50 [5] was 23 nM and the GIC50 [6] was 26 nM. The GIC50 [7] was 163 nM, the GIC50 [8] was 56 nM and the GIC50 [9] was 5.01 µM. For the same molecule, the GIC50 [10] was 29 nM, the GIC50 [11] was 25 nM and the GIC50 [12] was 97 nM. For the same molecule, the GIC50 [13] was 298 nM, the GIC50 [14] was 40 nM and the GIC50 [15] was 47 nM. For the same molecule, the GIC50 [16] was 33 nM, the GIC50 [17] was 37 nM and the GIC50 [18] was 60 nM. It also gave a GIC50 [19] of 5.02 µM, a GIC50 [20] of 25 nM and a GIC50 [21] of 24 nM. It also gave a GIC50 [22] of 61 nM, a GIC50 [23] of 54 nM and a GIC50 [24] of 22 nM. The GIC50 [25] was 16 nM, the GIC50 [26] was 5.23 µM and the GIC50 [27] was 98 nM. It also gave a GIC50 [28] of 44 nM, a GIC50 [29] of 58 nM and a GIC50 [30] of 29 nM. The GIC50 [31] was 119 nM, the GIC50 [32] was 53 nM and the GIC50 [33] was 31 nM. For the same molecule, the GIC50 [34] was 52 nM and the GIC50 [35] was 46 nM.

Reference: ChEMBL document CHEMBL5444388, “Affinity Phenotypic Cellular Literature for EUbOPEN Chemogenomic Library” (2024)
